Values joined by “and” are separate entries in the source; they are usually repeats but may differ in a detail not shown here. Equal values may be shown once. The list shows a part of the results. Further columns of the screen follow, without active or inactive calls. The list favours compounds with an active or inconclusive main result. Potencies come from curve fits of mixed quality, noted in brackets.
Assay: qHTS Assay for Lipid Storage Modulators in Drosophila S3 Cells;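 on cell number change: cells counted by Cell Tracker Red CMTPX staining in the red channel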
Details: BODIPY lipid droplet fluorescence, 18-24 h; for cell number change: measured here: cell count max response, cells fed with added oleic acid
How it was run: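 Laser-scanning cytometry quantifies lipid droplet accumulation (500–530 nm total intensity; droplet/cell object ratio) in oleic acid-fed (400 uM added) Drosophila S3 cells treated with a concentration series. 20 uM Triacsin C defined 100% inhibition.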

[1] = measured here: cell number channel AC50, cells fed with added oleic acid
[2] = measured here: lipid fluorescence (Fed channel) AC50, cells fed with added oleic acid

Row | SMILES | cell number change | AC50 [1] | AC50 [2]
1 | COc1cccc(C=Nc2cccc3c(=O)[nH][nH]c(=O)c23)c1O | -27.1% | 1.3 µM [falling, full curve, poor fit] | 
2 | Cc1ccccc1C(=O)NNC(=O)c1ccc(F)cc1 | 26.1% |  | 29.1 µM [rising, single point]
3 | CCOc1ccc(NC(=O)c2cccc(-n3cccc3)c2)cc1S(=O)(=O)N1CCOCC1 | 9.35% |  | 29.1 µM [rising, single point]
4 | CC(=O)Nc1cccc(NC(=O)CSc2nnc3ccc(-c4ccccn4)nn23)c1 | -15.5% |  | 
5 | CC1CCC(C(C)C)C(=O)/C1=C/c1ccc(N)cc1 (stereo not drawn) | 2.06% |  | 0.651 µM [falling, full curve]
6 | CCNc1nc(SCCOc2ccc(Cl)cc2Cl)nc(N(C)C)n1 | -30.7% | 32.6 µM [falling, single point] | 29.1 µM [falling, single point]
7 | Cc1sc2nc(C(C)C)nc(SCC(=O)N3c4ccccc4CC3C)c2c1C (stereo not drawn) | 15.4% |  | 0.82 µM [rising, full curve]
8 | CCC(=O)N1CCc2cc(OC)c(OC)cc2C1COc1ccc(F)cc1 (stereo not drawn) | 5.63% |  | 0.461 µM [rising, partial curve, poor fit]
9 | Cc1ccc(C)c(NC(=O)COC(=O)Cc2ccsc2)c1 |  | 6.51 µM [rising, single point] | 
10 | O=C(COc1ccc(F)cc1)N1CCCCCCC1 | 20.2% | 0.00411 µM [rising, full curve, poor fit] | 
11 | Cc1cc(Cl)ccc1NC(=O)CN1CCN(C(=O)c2ccco2)CC1 |  |  | 6.51 µM [falling, partial curve]
12 | Cc1ccc(S(=O)(=O)N2CCNC(=O)C2)c(C)c1 | -24.5% | 0.00411 µM [falling, full curve, poor fit] | 
13 | Cc1ccc(Nc2cc(-n3nc(C)cc3C)ncn2)c(C)c1 | -57.1% | 20.6 µM [falling, single point] | 18.4 µM [falling, partial curve, poor fit]
14 | COc1ccc(C2=NOC(Cn3nc(C(=O)NCc4ccc(C)cc4)cc3-c3ccccc3)C2)cc1 (stereo not drawn) | -14.9% |  | 
15 | Cc1ccc(Cn2c(=O)sc3ccccc3c2=O)cc1 |  | 6.51 µM [rising, single point] | 
16 | O=C(NCC(c1ccco1)N1CCCC1)c1cccc(S(=O)(=O)Nc2ccc(F)cc2)c1 (stereo not drawn) | -22.5% |  | 
17 | O=S(=O)(N/N=C\c1ccccc1O)c1ccc(Cl)cc1 |  | 5.8 µM [falling, single point] | 
18 | CCCCNC(=O)c1c(N)n(/N=C/c2ccccn2)c2nc3ccccc3nc12 | -18.4% |  | 0.58 µM [falling, full curve]
19 | O=C(O)Cn1c(-c2ccccn2)nc2ccccc21 | 14.9% |  | 
20 | CC(C)(C)OC(=O)NCCCCCNC(=O)c1nc[nH]c1C(=O)N1CCN(C(=O)OC(C)(C)C)CC1 | -3.25% |  | 0.82 µM [falling, full curve, poor fit]
21 | O=C(CSc1cccc[n+]1[O-])NC1CCCCCCC1 | -12.5% | 0.651 µM [rising, single point] | 

Row | SMILES | cell number change | AC50 [1] | AC50 [2]
22 | CC1(c2nnc(Cc3ccccc3)o2)CC(c2cccc(F)c2)=NO1 (stereo not drawn) | -5.87% |  | 
23 | COc1ccc(CCC(C)Nc2cccc(C)c2)cc1 (stereo not drawn) | -40.4% | 10.3 µM [falling, partial curve] | 23.1 µM [falling, single point]
24 | CCN1CCN(Cc2ccc(NC(=O)c3cc(NC(=O)N4CCNC4=O)cc(OC)c3)cc2C(F)(F)F)CC1 | 24.1% |  | 4.61 µM [rising, single point]
25 | Cc1ccccc1C1CC(c2ccccc2)Nc2ncnn21 (stereo not drawn) | -0.146% |  | 0.00461 µM [rising, full curve, poor fit]
26 | COc1ccc(OCc2nc(-c3ccc(F)c(F)c3)cs2)cc1 | -44.9% | 29.1 µM [falling, single point] | 29.1 µM [falling, single point]
27 | COc1ccccc1Nc1nc(N)nc(CSc2nccc(C)n2)n1 | 16.6% |  | 0.461 µM [rising, full curve]
28 | CCOC(=O)/C(=C/c1c2ccccc2cc2ccccc12)NC(=O)c1ccccc1 | -15.1% |  | 16.4 µM [falling, partial curve]
29 | Cc1ccc(/C=N/N2CCN(C3c4ccccc4-c4ccccc43)CC2)o1 | 15.5% |  | 
30 | CC1CCc2nc3ccc(S(=O)(=O)N4CCC(C(=O)N5CCCCCC5)CC4)cc3c(C(=O)O)c2C1 (stereo not drawn) | -7.83% | 0.58 µM [falling, partial curve] | 0.291 µM [falling, full curve, poor fit]
31 | CN(C)S(=O)(=O)c1cc(C(=O)Nc2ccn(C)n2)c(Cl)cc1Cl | 9.35% |  | 29.1 µM [rising, single point]
32 | CCCCNC(=O)Nc1cc(C(F)(F)F)c[nH]c1=O | 13% |  | 
33 | CCN(C(=O)c1ccc(Cl)cc1[N+](=O)[O-])c1ccccc1C | 10.3% |  | 0.13 µM [rising, single point]
34 | S=C(NCc1ccco1)N/N=C/c1ccccc1Cl | 17.1% |  | 6.51 µM [rising, single point]
35 | COc1cc(NS(=O)(=O)c2ccc(NC(=O)NC3CCCCC3)cc2)nc(OC)n1 | -23.1% |  | 29.1 µM [falling, partial curve]
36 | COc1ccc(/C=C(\C#N)C(=O)NCCCn2ccnc2)cc1 | 7.19% |  | 
37 | COc1ccc(CN(C(=S)Nc2ccccc2)C2CC(=O)N(c3ccc(Cl)cc3)C2=O)cc1 (stereo not drawn) | -25.6% | 0.092 µM [falling, full curve] | 
38 | O=C(COC(=O)c1cccc2ccccc12)NCC1CCCO1 (stereo not drawn) |  |  | 29.1 µM [falling, single point]
39 | CC12CC(c3ccccc3O1)N(C(=O)c1ccco1)C(=O)N2c1ccccc1 (stereo not drawn) |  | 1.16 µM [falling, full curve] | 
40 | COc1ccccc1N1CCN(C(=O)c2n[nH]c3ccccc23)CC1 | 39.2% | 0.00461 µM [rising, full curve] | 
41 | CC(=O)c1ccccc1NC(=O)Cn1c(=O)cnc2ccccc21 | -27.2% |  | 0.164 µM [rising, full curve, poor fit]
42 | CC(=O)Nc1cccc(N/C=C(\C=O)c2nc3ccccc3o2)c1 | -0.727% |  | 29.1 µM [falling, single point]

Row | SMILES | cell number change | AC50 [1] | AC50 [2]
43 | COC(=O)C1=C(C)N(C)C(C)=C(C(=O)OC)C1c1ccccn1 | 10.6% |  | 5.17 µM [falling, single point]
44 | Brc1ccc(-c2noc(COc3ccc4c(c3)CCC4)n2)o1 |  |  | 14.6 µM [rising, partial curve]
45 | O=C(NCc1ccco1)C1CCN(S(=O)(=O)N2CCOCC2)CC1 | 134% |  | 
46 | CC(C)(C)NC(=O)C(c1ccncc1)N(CC1CCCO1)C(=O)Cn1nnc(-c2ccc(F)cc2)n1 (stereo not drawn) | -25.9% |  | 29.1 µM [falling, single point]
47 | CCN(Cc1ccccc1)C(=O)c1cccc(S(=O)(=O)N2CCN(Cc3ccccc3)CC2)c1 | 45.2% | 11.6 µM [rising, partial curve] | 
48 | CCCCN(CC)CCNC(=O)C1CCN(S(=O)(=O)c2cccc3nsnc23)CC1 | -10.3% | 0.00461 µM [falling, full curve, poor fit] | 0.58 µM [falling, single point]
49 | O=C(COc1ccccc1O)NCCN1CCOCC1 | 11.7% |  | 
50 | COc1ccccc1NC(=O)c1ccc(-n2cccn2)c([N+](=O)[O-])c1 | 4.72% |  | 
51 | O=C(COc1ccc([N+](=O)[O-])cc1)Nc1cccc(C(=O)Nc2ccccc2C(=O)O)c1 | 47% |  | 29.1 µM [rising, single point]
52 | COc1ccc(Cc2nn3c(Cn4nnc5ccccc54)nnc3s2)cc1 |  |  | 3.26 µM [rising, partial curve]
53 | COC(=O)CN1C(=O)CSc2ncccc21 | -153% | 23.1 µM [falling, partial curve] | 23.1 µM [falling, partial curve]
54 | O=C(/C=C/c1ccccc1[N+](=O)[O-])NCCCN1CCCC1=O | 12.6% | 6.51 µM [rising, partial curve, poor fit] | 0.00651 µM [rising, full curve, poor fit]
56 | NC(=O)CC(NC(=O)c1ccccc1)c1ccc(NC2CCCC2)c([N+](=O)[O-])c1 (stereo not drawn) | -7.89% |  | 36.6 µM [falling, partial curve, poor fit]
57 | Cc1ccc(OCc2nnc(SCC(=O)Nc3ccc4c(c3)OCCO4)n2Cc2ccco2)cc1 | -19.8% |  | 29.1 µM [falling, single point]
58 | O=C(c1ccc(CS(=O)Cc2ccc(Cl)cc2)o1)N1CCN(c2ccccn2)CC1 (stereo not drawn) | -30.9% |  | 
59 | CCOc1ccc(NC(=S)N(CCCN2CCOCC2)Cc2cn(C)c3ccccc23)cc1 | 12% |  | 0.082 µM [rising, full curve, poor fit]
60 | Cc1ccc2c(c1)N(CC(=O)NCC1CCCO1)C(=O)CO2 (stereo not drawn) | 10.9% |  | 
61 | CCCNC(=O)COC(=O)c1c2c(nc3ccccc13)CCC2 | -33.3% |  | 5.17 µM [rising, single point]
62 | O=C(O)c1ccc(F)c(S(=O)(=O)Nc2ccccc2)c1 | -12.5% |  | 14.6 µM [falling, single point]
63 | CC1=C(C(=O)OCC2CCCO2)C(c2cccc(C(F)(F)F)c2)C2=C(CC(c3ccco3)CC2=O)N1 (stereo not drawn) | 20.3% |  | 29.1 µM [rising, single point]

Part of the list above, tab-delimited.
Row	SMILES	cell number change	AC50 [1]	AC50 [2]
61	CCCNC(=O)COC(=O)c1c2c(nc3ccccc13)CCC2	-33.3%		5.17 µM [rising, single point]
62	O=C(O)c1ccc(F)c(S(=O)(=O)Nc2ccccc2)c1	-12.5%		14.6 µM [falling, single point]

— PubChem BioAssay AID2685 (National Center for Advancing Translational Sciences (NCATS), 2010)
